PubChem BioAssay AID1224830 | NIAID | 2016

- Test: 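Genes whose knock-down alters the TNF-alpha reporter response to LPS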 (primary screen)
- System: human THP-1 monocytic leukaemia cells, TNF dual-luciferase reporter clone, PMA-differentiated to macrophage-like cells
- Reagents: siRNA pool against human genes, 50 nM
- Timing: LPS for 4 h, given about 3 days after siRNA transfection
- Challenge: bacterial LPS (TLR4 ligand), 10 ng/ml
- Detection: 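Ratio of firefly to renilla light, scaled to the plate median and expressed as a robust z-score per replicate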
- Direction: TNF reporter robust z-score: higher = stronger TNF reporter response to LPS
- Rule for the call: 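a well is active when its z-score exceeds 2.8 or falls below -1.5; control wells carry no call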
The deposit covers about 18,000 reagents; shown is an unselected part. In the full data, about 2,900 (16%) got an active call. 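Calls are made per well; low scores hint the gene aids the LPS response, high scores that it dampens it.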 Repeated entries: four replicate wells of each siRNA pool. No sequences are given here.

The opening 2 entries, to show the layout:
| TNF reporter robust z-score | call | target gene | PubChem SID |
| --- | --- | --- | --- |
| 0.41 | inactive | SMAD5 | SID315449845 |
| -0.22 | inactive | SMAD5 | SID315449845 |

Main list, repeating the preview:
| TNF reporter robust z-score | call | target gene | PubChem SID |
| --- | --- | --- | --- |
| 0.41 | inactive | SMAD5 | SID315449845 |
| -0.22 | inactive | SMAD5 | SID315449845 |
| 0.27 | inactive | SMAD5 | SID315449845 |
| 0.01 | inactive | SMAD5 | SID315449845 |
| 0.5 | inactive | CDYL2 | SID315461607 |
| 1.25 | inactive | CDYL2 | SID315461607 |
| 0.36 | inactive | CDYL2 | SID315461607 |
| 0.32 | inactive | CDYL2 | SID315461607 |
| 0.52 | inactive | RRAGC | SID315458838 |
| 0.66 | inactive | RRAGC | SID315458838 |
| 0.49 | inactive | RRAGC | SID315458838 |
| 1.14 | inactive | RRAGC | SID315458838 |
| -0.77 | inactive | RAD21 | SID315451027 |
| -1.19 | inactive | RAD21 | SID315451027 |
| -1.05 | inactive | RAD21 | SID315451027 |
| -1.08 | inactive | RAD21 | SID315451027 |
| -0.5 | inactive | C2orf76 | SID315461858 |
| 0.97 | inactive | C2orf76 | SID315461858 |
| 0.51 | inactive | C2orf76 | SID315461858 |
| 0.85 | inactive | C2orf76 | SID315461858 |
| -1.1 | inactive | SPDYC | SID315464454 |
| -0.19 | inactive | SPDYC | SID315464454 |
| -0.46 | inactive | SPDYC | SID315464454 |
| 0.16 | inactive | SPDYC | SID315464454 |
| -0.94 | inactive | MYO3B | SID315462101 |
| -0.01 | inactive | MYO3B | SID315462101 |
| -0.88 | inactive | MYO3B | SID315462101 |
| 0.22 | inactive | MYO3B | SID315462101 |
| -0.4 | inactive | GLRA2 | SID315448924 |
| 0.02 | inactive | GLRA2 | SID315448924 |
| -0.36 | inactive | GLRA2 | SID315448924 |
| 0.51 | inactive | GLRA2 | SID315448924 |
| -0.55 | inactive | FIZ1 | SID315460576 |
| -0.19 | inactive | FIZ1 | SID315460576 |
| -1.67 | active | FIZ1 | SID315460576 |
| -1.41 | inactive | PKD1L1-AS1 | SID315459645 |
| -1.22 | inactive | PKD1L1-AS1 | SID315459645 |
| -1.52 | active | PKD1L1-AS1 | SID315459645 |
| -1.3 | inactive | PKD1L1-AS1 | SID315459645 |
| 0.61 | inactive | ACTC1 | SID315447163 |
| 1.47 | inactive | ACTC1 | SID315447163 |
| 0.67 | inactive | ACTC1 | SID315447163 |
| 1.48 | inactive | ACTC1 | SID315447163 |
| 0.17 | inactive | PUSL1 | SID315461725 |
| 1.03 | inactive | PUSL1 | SID315461725 |
| 0.11 | inactive | PUSL1 | SID315461725 |
| 0.81 | inactive | PUSL1 | SID315461725 |
